Results as given in paper PMC6237750.
Construct, isoform or probe ends are uncertain for at least one entry. At least one verdict rests on a figure or table, not on a statement of the authors.

Biological target: DNA polymerase beta I260Q (NMR, crystal) (UniProt P06746)
Experiment: NMR
Details: dCpCpp (incorrect), 10 mM MgCl2; NMR: 50 mM HEPES, 100 mM KCl, 2 mM DTT, 10 mM MgCl2, 10% D2O, pH 7.4; recombinant protein

**Q.** Does “CGACCGACTGCGCATCAGCC / GGCTGATGCGC / GTCGGTCG [NMR substrate template T (20)]” bind?
**A.** Result: binds
